# According to PubChem BioAssay (EPA / NIEHS):
# Chains of the proteins cited; added tags and fusions are not shown.
# UniProt P35372, whole entry, looked up: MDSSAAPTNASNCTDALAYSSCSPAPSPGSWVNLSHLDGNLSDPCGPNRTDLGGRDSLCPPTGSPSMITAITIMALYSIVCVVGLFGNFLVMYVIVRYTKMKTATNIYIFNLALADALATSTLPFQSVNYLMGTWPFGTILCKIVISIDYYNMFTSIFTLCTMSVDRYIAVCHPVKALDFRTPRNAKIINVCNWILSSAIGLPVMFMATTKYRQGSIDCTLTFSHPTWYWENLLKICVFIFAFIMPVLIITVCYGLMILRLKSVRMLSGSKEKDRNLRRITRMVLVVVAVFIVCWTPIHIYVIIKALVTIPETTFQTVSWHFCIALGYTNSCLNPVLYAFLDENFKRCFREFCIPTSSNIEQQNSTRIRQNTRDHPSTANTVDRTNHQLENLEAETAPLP
# UniProt P19785, whole entry, looked up: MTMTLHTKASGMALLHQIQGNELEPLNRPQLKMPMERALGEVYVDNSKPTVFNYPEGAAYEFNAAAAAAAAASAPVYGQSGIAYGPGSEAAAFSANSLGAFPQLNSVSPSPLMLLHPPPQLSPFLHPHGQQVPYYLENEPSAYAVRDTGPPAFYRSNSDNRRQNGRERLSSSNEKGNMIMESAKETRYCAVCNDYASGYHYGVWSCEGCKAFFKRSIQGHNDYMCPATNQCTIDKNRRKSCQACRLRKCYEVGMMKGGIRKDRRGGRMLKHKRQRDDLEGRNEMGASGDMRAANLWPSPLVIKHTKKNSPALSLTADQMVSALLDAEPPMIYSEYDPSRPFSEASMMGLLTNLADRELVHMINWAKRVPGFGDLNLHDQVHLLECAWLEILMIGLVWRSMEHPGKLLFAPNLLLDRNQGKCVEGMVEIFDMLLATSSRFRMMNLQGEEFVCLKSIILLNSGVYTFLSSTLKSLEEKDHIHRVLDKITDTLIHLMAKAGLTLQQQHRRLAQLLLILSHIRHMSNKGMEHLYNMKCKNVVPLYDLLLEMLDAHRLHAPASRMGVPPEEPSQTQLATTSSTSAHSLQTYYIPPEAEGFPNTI
# UniProt P31652, whole entry, looked up: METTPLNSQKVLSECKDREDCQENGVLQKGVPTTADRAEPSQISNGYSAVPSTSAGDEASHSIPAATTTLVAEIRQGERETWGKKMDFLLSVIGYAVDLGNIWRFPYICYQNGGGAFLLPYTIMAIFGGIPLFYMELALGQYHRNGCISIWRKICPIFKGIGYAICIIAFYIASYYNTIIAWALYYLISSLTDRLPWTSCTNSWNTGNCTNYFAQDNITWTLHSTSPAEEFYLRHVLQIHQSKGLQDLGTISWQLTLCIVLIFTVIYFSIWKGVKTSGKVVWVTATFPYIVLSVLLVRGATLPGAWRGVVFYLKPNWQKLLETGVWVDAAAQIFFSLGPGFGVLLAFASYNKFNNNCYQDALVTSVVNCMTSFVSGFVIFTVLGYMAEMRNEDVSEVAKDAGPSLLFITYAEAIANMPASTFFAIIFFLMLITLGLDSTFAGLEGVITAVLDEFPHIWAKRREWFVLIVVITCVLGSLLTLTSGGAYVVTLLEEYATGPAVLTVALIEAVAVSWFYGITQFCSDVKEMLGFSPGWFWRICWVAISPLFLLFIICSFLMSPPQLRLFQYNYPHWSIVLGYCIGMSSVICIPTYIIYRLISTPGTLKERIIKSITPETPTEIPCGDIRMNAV
# UniProt P06212, whole entry, looked up: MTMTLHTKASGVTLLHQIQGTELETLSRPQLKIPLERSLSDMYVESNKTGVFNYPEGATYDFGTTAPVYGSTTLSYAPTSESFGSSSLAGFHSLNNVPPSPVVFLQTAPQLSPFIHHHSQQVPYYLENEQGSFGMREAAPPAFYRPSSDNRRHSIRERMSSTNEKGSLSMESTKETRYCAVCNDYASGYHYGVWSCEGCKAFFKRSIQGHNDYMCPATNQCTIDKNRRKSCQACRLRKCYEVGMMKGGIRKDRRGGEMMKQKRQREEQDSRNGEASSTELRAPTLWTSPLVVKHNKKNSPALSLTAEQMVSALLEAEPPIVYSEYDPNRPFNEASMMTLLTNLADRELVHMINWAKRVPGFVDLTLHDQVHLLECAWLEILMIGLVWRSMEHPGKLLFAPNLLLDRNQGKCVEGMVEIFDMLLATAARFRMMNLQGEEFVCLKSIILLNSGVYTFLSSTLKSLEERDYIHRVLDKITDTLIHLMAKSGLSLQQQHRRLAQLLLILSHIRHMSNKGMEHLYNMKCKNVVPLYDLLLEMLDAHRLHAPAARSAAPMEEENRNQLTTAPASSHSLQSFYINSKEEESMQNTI
# For some assays here: What follows is the remainder of the data, with few or none of the hits. Records with an inconclusive call do not appear. The list shows a part of the results, in another mix than the full data. The source made the active and inactive calls. The calls were made as follows, unless noted: active = hit-call score of the fitted dose curve at least 0.9, where 1 is the maximum; inactive = score below 0.9.
# Columns and labels:
# [1] = read-out: Tissue Factor, F3 (gene 2152); test: BSK_CASM3C_TissueFactor: BioMAP Diversity Plus: CASM3C Assay for Tissue Factor Biomarker Activity (AID 2283052); settings: actives raise or lower the signal; primary human coronary artery smooth muscle cells;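 also: cell surface tissue factor protein level read by ELISA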
# [2] = read-out: Urokinase-type plasminogen activator receptor (uPAR), PLAUR (gene 5329); test: BSK_CASM3C_uPAR: BioMAP Diversity Plus: CASM3C Assay for Urokinase-type plasminogen activator receptor (uPAR) Biomarker Activity (AID 2283054); settings: actives raise or lower the signal; primary human coronary artery smooth muscle cells;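 also: cell-surface uPAR protein level quantified by ELISA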
# [3] = molecular target: human Opioid Receptor Mu (Opiate Mu), OPRM1 (gene 4988) (UniProt P35372); test: NVS_GPCR_hOpiate_mu: NovaScreen (NVS) G Protein-Coupled Receptor Assay for human Opioid Receptor Mu (Opiate Mu) (AID 2283290; active = hit-call score of the fitted dose curve at least 0.9, where 1 is the maximum;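 also: hits lower bound tracer signal versus DMSO meaning displacement of the ligand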)
# Procedure, shortened: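 Primary screen in duplicate at 25 uM, with actives followed in concentration series. CHO-derived receptor membranes, cell-free; bound radioligand read by scintillation counting after filtration at 2.5 h, decrease scored against DMSO.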
# [4] = molecular target: mouse Estrogen Receptor alpha (Era), Esr1 (gene 13982) (UniProt P19785); test: NVS_NR_mERa: NovaScreen (NVS) Nuclear Receptor Binding Assay for mouse Estrogen Receptor alpha (Era) (AID 2283378; active = hit-call score of the fitted dose curve at least 0.9, where 1 is the maximum;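 also: hit means loss of bound radioligand signal relative to DMSO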)
# Procedure, shortened: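 Cell-free radioligand competitive displacement binding, read by filter-based scintillation counting 18 h after dosing. Primary screen run in duplicate at 25 uM, actives retested in concentration series; loss of signal versus DMSO.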
# [5] = read-out: matrix metalloproteinase-3 (MMP3), MMP3 (gene 4314); test: LTEA_HepaRG_MMP3: Life Technologies and Expression Analysis (LTEA) Assay for matrix metalloproteinase-3 (MMP3) using HepaRG (AID 2283519); settings: actives raise or lower the signal; mRNA level, 48 h
# Procedure, shortened: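 Differentiated human HepaRG cells, plated 48 h on collagen I, were exposed in duplicate for 48 h in serum-free induction medium to eight half-log concentrations up to 100 uM in 0.5% DMSO. MMP3 mRNA was quantified by TaqMan qRT-PCR, normalised to ACTB, GAPDH and POLR2A.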
# [6] = read-out: Pyruvate Dehydrogenase Kinase 4 (PDK4), PDK4 (gene 5166); test: LTEA_HepaRG_PDK4: Life Technologies and Expression Analysis (LTEA) Assay for Pyruvate Dehydrogenase Kinase 4 (PDK4) using HepaRG (AID 2283525); settings: actives raise or lower the signal; mRNA level, 48 h
# Procedure, shortened: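 Differentiated human HepaRG cells, pre-cultured 48 h, were exposed in duplicate for 48 h in serum-free induction medium to eight half-log concentrations up to 100 uM in 0.5% DMSO. PDK4 mRNA was quantified by qRT-PCR, normalized to ACTB, GAPDH and POLR2A, bidirectional fitting versus DMSO.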
# [7] = ACEA_AR_agonist_AUC_viability: ACEA Biosciences xCELLigence Real-Time Cell Analysis on Androgen Receptor Agonism for Viability (AID 2283775; active = hit-call score of the fitted dose curve at least 0.9, where 1 is the maximum;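 also: viability read 80 hours after compound addition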)
# Procedure, shortened: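 Read-out is area under the impedance curve at 80 h post-dose in 22Rv1 cells, with DMSO as baseline and signal loss taken as reduced viability. Compounds ran in duplicate from 100 uM final.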
# [8] = read-out: Vascular cell adhesion molecule 1 (VCAM1), VCAM1 (gene 7412); test: BSK_CASM3C_VCAM1: BioMAP Diversity Plus: CASM3C Assay for Vascular cell adhesion molecule 1 (VCAM1) Biomarker Activity (AID 2283055); settings: actives raise or lower the signal; primary human coronary artery smooth muscle cells;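 also: VCAM-1 protein level quantified by ELISA on the cells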
# [9] = CEETOX_H295R_11DCORT: CeeTox H295R High-throughput Steroidogenesis Assay for 11-Deoxycortisol (11DCORT) (AID 2283432); settings: actives raise or lower the signal
# Procedure, shortened: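 Human adrenal H295R cells were prestimulated with 10 uM forskolin for 48 h, then exposed to test chemical (0.1% DMSO final) for 48 h. Medium 11-deoxycortisol was quantified by MTBE extraction and HPLC-MS/MS; bidirectional fitting relative to DMSO.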
# [10] = CEETOX_H295R_OHPROG: CeeTox H295R High-throughput Steroidogenesis Assay for OH-Progesterone (OHPROG) (AID 2283435); settings: actives raise or lower the signal
# [11] = read-out: Epidermal growth factor receptor (EGFR), EGFR (gene 1956); test: BSK_hDFCGF_EGFR: BioMAP Diversity Plus: hDFCGF Assay for Epidermal growth factor receptor (EGFR) Biomarker Activity (AID 2283057); settings: actives raise or lower the signal; primary human foreskin fibroblasts
# Procedure, shortened: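 Measured by ELISA: EGFR levels on primary human foreskin fibroblasts 24 h after chemical treatment, analysed relative to DMSO with bidirectional fitting.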
# [12] = molecular target: rat Serotonin Transporter (SERT), Slc6a4 (gene 25553) (UniProt P31652); test: NVS_TR_rSERT: NovaScreen (NVS) Transporter Assay for rat Serotonin Transporter (SERT) (AID 2283375; active = hit-call score of the fitted dose curve at least 0.9, where 1 is the maximum)
# Procedure, shortened: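 Rat forebrain membranes; radioligand displacement at SERT read by filter-based scintillation counting, 1 h after dosing. Screened in duplicate at 25 uM, actives then run in concentration series; loss of signal versus DMSO baseline.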
# [13] = TOX21_p53_BLA_p2_viability: Viability Assessment in the Tox21 HCT-116 p53 Agonism Beta-lactamase Assay, Phase 2 (AID 2283591; active = hit-call score of the fitted dose curve at least 0.9, where 1 is the maximum;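 also: compound exposure lasted 16 h at 37 °C; actives lower the ATP signal meaning cytotoxicity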)
# Procedure, shortened: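 HCT-116 p53-bla cells (4000/well) rested 5 h at 37C, then received compounds in DMSO (217-fold dilution) for 16 h at 37C, 5% CO2. After the CCF4 read, CellTiter-Glo was added; ATP luminescence was read after 30 min at room temperature.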
# [14] = CCTE_Deisenroth_5AR_NBTE_acceptor: CCTE's 5alpha-reductase NanoBRET Target Engagement Assay - Autofluorescence Screen, Deisenroth Lab (AID 2284321); settings: actives raise or lower the signal;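 also: compound fluorescence in the acceptor channel under 460 nm excitation flags autofluorescence artifacts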
# Procedure, shortened: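 Autofluorescence counter-screen: chemicals at an assumed nominal 100 uM in DMSO were scanned in three independent runs with 460 nm excitation. Gain or loss of acceptor signal was fitted bidirectionally against DMSO.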
# [15] = read-out: Macrophage colony-stimulating factor (MCSF), CSF1 (gene 1435); test: BSK_hDFCGF_MCSF: BioMAP Diversity Plus: hDFCGF Assay for Macrophage colony-stimulating factor (MCSF) Biomarker Activity (AID 2283060); settings: actives raise or lower the signal; primary human foreskin fibroblasts
# Procedure, shortened: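 Human foreskin fibroblast primary cultures; M-CSF measured by ELISA 24 hours after chemical dosing. Bidirectional fitting relative to DMSO, with overt cytotoxicity tracked by parallel SRB total-protein staining (0.1% SRB, 10% TCA fixation, 560 nm).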
# [16] = read-out: Interferon-gamma inducible Protein 10 (IP10), CXCL10 (gene 3627); test: BSK_KF3CT_IP10: BioMAP Diversity Plus: KF3CT Assay for Interferon-gamma inducible Protein 10 (IP10) Biomarker Activity (AID 2283068); settings: actives raise or lower the signal; primary human keratinocytes with fibroblasts
# Procedure, shortened: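 Human keratinocyte plus foreskin fibroblast primary co-culture exposed to test chemical for 24 h; IP-10 measured by ELISA. Concentration-response fitted bidirectionally against DMSO control as baseline.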
# [17] = read-out: MicroRNA 122 (MIR122), gene 406906; test: LTEA_HepaRG_MIR122: Life Technologies and Expression Analysis (LTEA) Assay for MicroRNA 122 (MIR122) using HepaRG (AID 2283516); settings: actives raise or lower the signal; mRNA level, 48 h; also: the transcript read is the microRNA miR-122
# Procedure, shortened: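 HepaRG, 48 h exposure, 8-pt half-log from 100 uM, 0.5% DMSO; TaqMan qRT-PCR; bidirectional fit vs DMSO.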
# [18] = tested on: zebrafish Estrogen Receptor (ESR2A), gene 317734; test: ATG_zfER2a_XSP1: Attagene TRANS-FACTORIAL Multi-Species (XSP1) HepG2 Assay for zebrafish Estrogen Receptor (ESR2A) (AID 2283778; active = hit-call score of the fitted dose curve at least 0.9, where 1 is the maximum)
# Procedure, shortened: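 HepG2 cells transiently transfected with multiplexed GAL4-UAS reporter units and chimeric NR-GAL4 receptors; 24 h compound exposure with 3 nM 6-alpha-fluorotestosterone present. Reporter mRNA quantified by RT-PCR and capillary electrophoresis, gain-of-signal fitted relative to DMSO.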
# [19] = molecular target: chicken Estrogen Receptor (ERa), ESR1 (gene 396099) (UniProt P06212); test: ATG_chERa_XSP2: Attagene TRANS-FACTORIAL Multi-Species (XSP2) HepG2 Assay for chicken Estrogen Receptor (ERa) (AID 2283817; active = hit-call score of the fitted dose curve at least 0.9, where 1 is the maximum;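 also: actives raise reporter signal above DMSO so AC50 reflects ER activation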)
# Procedure, shortened: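 HepG2 cells transiently transfected with multiplexed GAL4-UAS reporter units expressing chimeric chicken ERa-Gal4; 24 h compound exposure. Reporter mRNA measured by RT-PCR with 6-FAM labelling, HpaI digestion and capillary electrophoresis; gain-of-signal fitted versus DMSO.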
compound,measurement,setting,value
COC(=O)c1ccc(C(=O)OC)cc1,outcome,[1],inactive
N=C(N)c1ccc(OCCCCCOc2ccc(C(=N)N)cc2)cc1,AC50,[2],active: 11.1 µM
same,AC50,[3],active: 4.35 µM
same,AC50,[4],active: 936 nM
same,outcome,[5],inactive
same,AC50,[6],active: 11 µM
same,AC50,[7],active: 24.6 µM
CCCCCCCC[Si](OCC)(OCC)OCC,outcome,[8],inactive
same,outcome,[9],inactive
same,outcome,[10],inactive
c1ccc(C(O[C@@H]2CCCN(CCc3ccc4c(c3)OCO4)C2)c2ccccc2)cc1,outcome,[11],inactive
same,AC50,[12],active: 11 µM
same,outcome,[13],inactive
CCCCC(CC)COC(=O)CC(C(=O)OCC(CC)CCCC)S(=O)(=O)O (stereo not given),outcome,[11],inactive
same,AC50,[14],active: 50 µM
CC(=O)O[C@]1(C(C)=O)CC[C@H]2[C@@H]3C=C(Cl)C4=CC(=O)[C@@H]5C[C@@H]5[C@]4(C)[C@H]3CC[C@@]21C,outcome,[15],inactive
same,outcome,[16],inactive
same,AC50,[17],active: 50 µM
same,AC50,[18],active: 26.4 µM
same,outcome,[19],inactive
